Assay results taken from PubChem BioAssay AID493014 (National Center for Advancing Translational Sciences (NCATS), 2011).
Hit rate of the full screen: of about 340,000 compounds, about 170 (0.05%) were called active. Inconclusive results, whose numbers are uncertain, are shown with a selection of clear calls. The call rests on the fitted dose curve; in most records, active means well fitted inhibition curve with a large enough effect in the signal ratio, with a control signal flat (not every such curve was filed as active); inconclusive means small, poorly fitted or top-dose-only effect, or effect the other way, or a change in a side signal; inactive means flat fitted curve, though single readings scatter; the % refers to the signal ratio. Potencies of inconclusive entries are doubtful fits and often do not repeat.

Assay: qHTS Assay to Find Inhibitors of Chronic Active B-Cell Receptor Signaling;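 on activity change, negative = inhibition: plate controls were basal doxycycline-induced cells for no effect and cells given 10 µM MG132 for full effect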
Conditions: ABC-DLBCL IkBa-CBG/CBR reporter, luminescence ratio (green luciferase fused to IkBa over red control in TMD8 lymphoma cells), 4 h; activity change, negative = inhibition: at 46.1 µM (top of the series) unless noted
Procedure, shortened: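 TMD8 human ABC-DLBCL cells with doxycycline-inducible IκBα–green luciferase fusion and unfused red luciferase, in 0.5% FBS medium; compounds up to 46 uM, 4 h at 37C. Green/red luminescence ratio, filter-overlap corrected, fitted to concentration-response curves.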
Potency means the concentration at half of the fitted maximal effect.

SMILES	activity change, negative = inhibition	Potency
Cc1ccc(CNC(=O)C2CCC(=O)N(CCCN3CCOCC3)C2)cc1 (configuration not stated)	inconclusive: 6.47%	
O=C(O)C1CCN(C(=O)CSc2nnc3ccccn23)CC1	inactive: 0.6%	
COc1ccc(S(=O)(=O)Cc2ccc(C(=O)NC3CCCC3)o2)cc1	inconclusive: -7.64%	
Cc1nc(N2CCOCC2)nc(Oc2ccccc2F)c1[N+](=O)[O-]	inconclusive: -12.6%	
Cc1cc(C)nc(N(C#N)CC(=O)N2CCC(C(N)=O)CC2)n1	inconclusive: 8.05%	
CCN(CC)CCCNC1=C(Cl)C(=O)c2ccccc2C1=O	inconclusive: 28.9%	
COC(=O)c1c(C)n(-c2ccc(OC)cc2)c2ccc(O)cc12	inconclusive: -7.14%	
Cc1ccc(NCC(=O)c2ccccc2)cc1Cl	inactive: 6.6%	
CC(=O)N1CCOc2ccc(S(=O)(=O)NCCc3ccc(Cl)cc3)cc21	inactive: -3.09%	
CN1CCN(CCCC(=O)c2ccc(C3CCCC3)cc2)CC1	inconclusive: -0.669%	
CCOc1ccc(-c2nnc(SCC(=O)Nc3ccc4c(c3)c3ccccc3n4CC)n2N)cc1	inconclusive: 4.67%	
COc1ccc(N2COC3c4cccc5cccc(c45)C32)cc1 (configuration not stated)		inconclusive: 4.61 µM [falling, partial curve]
COc1ccc(CC(=O)OCn2nnc3ccccc3c2=O)cc1		inconclusive: 18.4 µM [falling, single point]
Cc1cccc2cc(CN(CCCO)C(=O)Nc3ccccc3Cl)c(=O)[nH]c12	inconclusive: -15.9%	
Cc1ccc(Nc2nc3ccccc3n3cnnc23)cc1Cl	inconclusive: 9.56%	
CCN1CCN(Cc2ccc(NC(=O)c3ccc(C)c(NC(=O)c4ccnnc4)c3)cc2C(F)(F)F)CC1	inconclusive: 0.0638%	
COc1cc(/C=C2\SC(=S)N(CC(=O)Nc3cccnc3)C2=O)cc(OC)c1OC	inconclusive: 5.48%	
COc1ccc(C(=O)c2c(C(F)(F)F)oc3c2C(=O)c2ccccc2C3=O)cc1	inactive: 17.8%	
Fc1ccc2[nH]c3c(N4CCc5ccccc5C4)ncnc3c2c1	inconclusive: 27.8%	
Cc1ccc(C)c(C(=O)Cn2c(NCCO)nc3ccccc32)c1	inactive: -0.446%	
CCC(=O)c1ccc(OCc2ccc(C#N)cc2)cc1	inconclusive: 10.9%	
COc1cccc(NC(=S)NC(=O)/C=C/c2ccco2)c1	inactive: -15.5%	
CC1CC(C)(C)NC(=S)N1CCCC(=O)NCc1ccccc1 (configuration not stated)	inactive: 6.34%	
COc1ccc(NC(=O)CCCN2C(=O)/C(=C\c3ccco3)SC2=S)cc1		inconclusive: 16.4 µM [falling, partial curve]
COc1ccc(NC(=O)c2cc([N+](=O)[O-])ccc2N2CCN(C)CC2)cc1		inconclusive: 1.78 µM [falling, full curve]
CC(=O)NC(c1ccco1)c1cc(F)c2cccnc2c1O (configuration not stated)	inconclusive: -21.6%	inconclusive: 18.4 µM [falling, single point]

SMILES	activity change, negative = inhibition	Potency
Cc1cc(C)cc(NC(=S)NCc2ccc3[nH]c4c(c3c2)CCCC4)c1	inactive: -23.7%	
Cc1ccnc2nc(C(=O)Nc3nnc(CC(C)C)s3)nn12	inconclusive: -22.8%	
CC1=NN(c2ccc(S(=O)(=O)O)cc2C)C(=O)C1	inactive: 5.51%	
COc1ccccc1-c1sc2ccccc2c1-c1ccc(OCCN2CCCCC2)cc1		inconclusive: 18.4 µM [falling, single point]
O=C(O)c1cccc(NC(=S)NC(NC(=O)c2ccco2)C(Cl)(Cl)Cl)c1 (configuration not stated)	inconclusive: 6.75%	
O=C(NCc1cccnc1)C12CC3CC(CC(Cl)(C3)C1)C2		inconclusive: 11.2 µM [falling, partial curve, poor fit]
CS(=O)(=O)c1ccc2nc(NC(=O)c3ccccc3Cl)sc2c1		inconclusive: 15.8 µM [falling, partial curve]
COc1ccc(/C=N/NC2=NCCCCC2)c(OC)c1		inconclusive: 17.8 µM [falling, partial curve, poor fit]
COc1ccc(NC(=O)C2CCC(CNS(=O)(=O)c3csc(C(N)=O)c3)CC2)cc1OC (configuration not stated)	inconclusive: 2.44%	
O=C(Nc1nc2c(Cl)cccc2s1)c1ccc([N+](=O)[O-])o1		inconclusive: 2.82 µM [falling, full curve]
c1cc2c(cc1-c1csc(NNC3=NCCCCC3)n1)OCCO2	inconclusive: -8.91%	
O=C(c1cc(COc2ccc(F)cc2Cl)on1)N(CCO)Cc1cccs1	inconclusive: -29.7%	
C[C@H](CO)N1C[C@H](C)[C@@H](CN(C)S(=O)(=O)c2ccc(F)cc2)Oc2ccc(NC(=O)Nc3ccccc3)cc2C1=O	inactive: 0.511%	
O=c1[nH]c(SCc2ccccc2)nc2ccsc12		inconclusive: 35.5 µM [falling, single point]
O=c1oc2ccccc2c(NC2CCCCC2)c1NS(=O)(=O)c1ccc(F)c(Cl)c1	inconclusive: 1.6%	
O=C(NN=C1CCC(=NNC(=O)c2cccnc2)CC1)c1cccnc1		inconclusive: 8.91 µM [falling, partial curve]
Cc1cccc(CSCCNC(=S)Nc2ccccc2)c1	inactive: 4.21%	
S=c1[nH]nc(-c2cc(-c3ccccc3)n[nH]2)n1/N=C/c1ccc(Cl)c(Cl)c1	inconclusive: 4.78%	
O=C(Nc1sc2c(c1C(=O)O)CCCCC2)c1cccnc1		inconclusive: 20 µM [falling, partial curve, poor fit]
O=C1CN(C(=O)c2cccc(Br)c2)C(c2ccccc2)c2cc(Cl)ccc2N1 (configuration not stated)		inconclusive: 14.1 µM [falling, partial curve, poor fit]
Cc1[nH]c(-c2ccccn2)nc(=S)c1Cl		inconclusive: 11.2 µM [falling, partial curve, poor fit]
O=c1[nH]ncc2c3ccccc3n(Cc3ccc(F)cc3)c12	inactive: -1.27%	
COc1ccc(CN(C)S(=O)(=O)c2nnc(NC(=O)c3ccccc3OC)s2)cc1OC	inconclusive: 10.2%	
COc1ccc(/C=C(/NC(=O)c2ccccc2)C(=O)N2CCCCC2)cc1OC	inconclusive: -2.75%	
O=C(NCCS(=O)(=O)N1CCN(c2cccc(Cl)c2)CC1)c1ccc2c(c1)OCO2	inactive: -2.9%	
